# Results published in the supplement of paper PMC7666118.
# The chains behind the UniProt entries cited, without tags or fusion partners. Where a name states a change or a piece, a line headed by the entry shows the natural chain unless it says otherwise.
# UniProt Q13057: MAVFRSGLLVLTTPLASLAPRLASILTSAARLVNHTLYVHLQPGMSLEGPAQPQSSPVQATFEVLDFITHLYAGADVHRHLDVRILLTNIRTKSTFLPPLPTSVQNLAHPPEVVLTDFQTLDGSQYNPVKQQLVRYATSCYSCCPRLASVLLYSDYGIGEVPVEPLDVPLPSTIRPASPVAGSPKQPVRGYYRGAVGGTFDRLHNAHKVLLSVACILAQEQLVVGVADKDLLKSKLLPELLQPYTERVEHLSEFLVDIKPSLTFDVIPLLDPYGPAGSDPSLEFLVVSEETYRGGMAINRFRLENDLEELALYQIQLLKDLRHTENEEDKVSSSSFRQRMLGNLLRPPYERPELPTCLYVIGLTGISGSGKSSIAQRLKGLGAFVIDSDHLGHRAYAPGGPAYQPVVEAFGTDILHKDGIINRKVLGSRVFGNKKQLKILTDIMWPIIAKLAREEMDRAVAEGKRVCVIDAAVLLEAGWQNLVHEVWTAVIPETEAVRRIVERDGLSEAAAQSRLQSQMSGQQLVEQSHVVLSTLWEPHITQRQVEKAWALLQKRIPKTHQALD
# UniProt Q8WX92, whole entry: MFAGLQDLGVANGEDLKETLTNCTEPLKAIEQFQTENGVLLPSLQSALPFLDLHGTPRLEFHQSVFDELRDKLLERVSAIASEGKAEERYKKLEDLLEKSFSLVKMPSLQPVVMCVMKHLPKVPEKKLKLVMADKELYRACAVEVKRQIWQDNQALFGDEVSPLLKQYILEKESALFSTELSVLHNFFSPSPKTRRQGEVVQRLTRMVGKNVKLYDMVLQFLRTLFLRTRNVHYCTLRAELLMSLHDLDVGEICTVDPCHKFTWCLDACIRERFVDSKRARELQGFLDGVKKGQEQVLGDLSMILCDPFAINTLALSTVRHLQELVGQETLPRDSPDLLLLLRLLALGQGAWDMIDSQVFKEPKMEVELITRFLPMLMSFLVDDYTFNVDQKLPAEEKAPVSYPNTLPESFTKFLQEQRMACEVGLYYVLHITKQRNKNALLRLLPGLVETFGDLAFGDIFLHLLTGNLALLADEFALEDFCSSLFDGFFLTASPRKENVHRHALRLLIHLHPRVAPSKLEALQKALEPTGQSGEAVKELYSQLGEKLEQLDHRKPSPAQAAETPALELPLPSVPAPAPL
# UniProt Q8NCX0: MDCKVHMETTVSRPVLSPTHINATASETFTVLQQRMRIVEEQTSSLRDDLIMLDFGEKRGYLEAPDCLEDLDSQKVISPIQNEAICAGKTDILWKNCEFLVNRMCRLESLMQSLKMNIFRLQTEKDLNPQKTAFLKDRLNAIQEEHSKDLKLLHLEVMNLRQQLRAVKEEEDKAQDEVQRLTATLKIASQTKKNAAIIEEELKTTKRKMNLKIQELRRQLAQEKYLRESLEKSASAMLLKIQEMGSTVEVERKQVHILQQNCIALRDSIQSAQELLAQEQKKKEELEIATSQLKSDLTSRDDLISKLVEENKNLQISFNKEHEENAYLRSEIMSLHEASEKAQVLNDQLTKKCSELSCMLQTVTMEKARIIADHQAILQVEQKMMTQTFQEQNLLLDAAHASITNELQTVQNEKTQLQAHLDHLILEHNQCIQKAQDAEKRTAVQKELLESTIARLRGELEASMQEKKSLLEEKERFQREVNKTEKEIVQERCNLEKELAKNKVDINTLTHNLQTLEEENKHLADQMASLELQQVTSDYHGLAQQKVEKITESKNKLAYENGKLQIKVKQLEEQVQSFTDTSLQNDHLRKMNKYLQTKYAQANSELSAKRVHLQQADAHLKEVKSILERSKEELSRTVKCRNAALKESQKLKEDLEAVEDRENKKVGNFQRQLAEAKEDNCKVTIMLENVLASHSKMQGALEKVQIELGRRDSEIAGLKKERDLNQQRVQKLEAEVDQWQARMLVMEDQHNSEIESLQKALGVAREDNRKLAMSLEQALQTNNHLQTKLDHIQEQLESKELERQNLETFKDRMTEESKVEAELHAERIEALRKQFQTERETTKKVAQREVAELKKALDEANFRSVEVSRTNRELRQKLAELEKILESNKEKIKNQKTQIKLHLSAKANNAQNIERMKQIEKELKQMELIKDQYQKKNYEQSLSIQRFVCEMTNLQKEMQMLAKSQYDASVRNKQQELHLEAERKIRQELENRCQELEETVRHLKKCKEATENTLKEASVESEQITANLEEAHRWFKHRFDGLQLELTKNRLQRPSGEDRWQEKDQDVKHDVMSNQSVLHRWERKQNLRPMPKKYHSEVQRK
# UniProt Q9UFW8: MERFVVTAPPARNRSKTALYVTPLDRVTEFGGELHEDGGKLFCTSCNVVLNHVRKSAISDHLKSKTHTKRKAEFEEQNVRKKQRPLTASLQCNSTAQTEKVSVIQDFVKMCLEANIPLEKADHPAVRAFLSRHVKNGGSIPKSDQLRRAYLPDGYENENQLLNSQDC
# UniProt Q7Z6B0: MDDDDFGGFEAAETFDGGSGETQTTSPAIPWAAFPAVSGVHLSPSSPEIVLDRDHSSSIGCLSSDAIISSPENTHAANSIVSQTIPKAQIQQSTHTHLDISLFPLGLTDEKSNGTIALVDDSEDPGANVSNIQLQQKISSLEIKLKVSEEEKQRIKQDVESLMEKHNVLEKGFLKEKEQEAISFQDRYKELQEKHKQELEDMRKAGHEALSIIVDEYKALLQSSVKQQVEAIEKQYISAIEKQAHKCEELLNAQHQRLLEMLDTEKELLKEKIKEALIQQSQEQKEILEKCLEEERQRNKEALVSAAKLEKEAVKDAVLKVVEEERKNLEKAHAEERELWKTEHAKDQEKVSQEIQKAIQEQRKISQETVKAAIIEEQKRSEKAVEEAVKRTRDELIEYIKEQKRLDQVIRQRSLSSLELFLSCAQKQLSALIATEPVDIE
# UniProt P60033: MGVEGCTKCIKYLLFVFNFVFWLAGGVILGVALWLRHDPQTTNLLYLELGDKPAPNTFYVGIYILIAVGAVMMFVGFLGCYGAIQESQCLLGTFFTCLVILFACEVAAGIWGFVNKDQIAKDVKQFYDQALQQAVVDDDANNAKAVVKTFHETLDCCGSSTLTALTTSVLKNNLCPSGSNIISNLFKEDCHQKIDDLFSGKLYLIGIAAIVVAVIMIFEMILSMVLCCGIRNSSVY
# UniProt Q03701: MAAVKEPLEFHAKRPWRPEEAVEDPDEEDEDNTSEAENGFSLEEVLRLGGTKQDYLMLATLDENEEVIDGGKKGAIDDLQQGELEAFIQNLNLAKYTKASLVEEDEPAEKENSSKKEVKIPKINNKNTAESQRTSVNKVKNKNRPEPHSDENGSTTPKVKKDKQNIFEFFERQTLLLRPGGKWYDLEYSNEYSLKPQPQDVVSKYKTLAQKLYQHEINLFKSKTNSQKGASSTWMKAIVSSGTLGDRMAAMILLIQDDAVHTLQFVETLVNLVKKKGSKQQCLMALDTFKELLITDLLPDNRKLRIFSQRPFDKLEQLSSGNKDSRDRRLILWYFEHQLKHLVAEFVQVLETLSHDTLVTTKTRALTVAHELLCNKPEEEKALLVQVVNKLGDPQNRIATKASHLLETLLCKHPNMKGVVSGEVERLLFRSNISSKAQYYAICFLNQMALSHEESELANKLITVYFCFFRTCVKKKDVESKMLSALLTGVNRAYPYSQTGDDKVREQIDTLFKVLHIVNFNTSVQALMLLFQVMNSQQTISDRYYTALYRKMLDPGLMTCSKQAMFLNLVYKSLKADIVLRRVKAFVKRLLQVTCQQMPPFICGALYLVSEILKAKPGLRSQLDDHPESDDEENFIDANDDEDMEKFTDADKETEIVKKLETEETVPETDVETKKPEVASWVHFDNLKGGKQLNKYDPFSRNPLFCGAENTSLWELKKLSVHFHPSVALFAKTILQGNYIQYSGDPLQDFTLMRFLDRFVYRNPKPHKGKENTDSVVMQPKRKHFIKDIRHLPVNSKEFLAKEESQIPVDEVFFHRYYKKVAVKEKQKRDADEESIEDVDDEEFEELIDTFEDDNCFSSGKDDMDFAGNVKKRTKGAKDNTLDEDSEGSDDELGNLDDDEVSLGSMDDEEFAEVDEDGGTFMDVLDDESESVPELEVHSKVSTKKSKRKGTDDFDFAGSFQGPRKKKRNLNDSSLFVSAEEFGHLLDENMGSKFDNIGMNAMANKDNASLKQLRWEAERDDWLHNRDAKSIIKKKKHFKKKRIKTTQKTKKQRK
# UniProt O14967: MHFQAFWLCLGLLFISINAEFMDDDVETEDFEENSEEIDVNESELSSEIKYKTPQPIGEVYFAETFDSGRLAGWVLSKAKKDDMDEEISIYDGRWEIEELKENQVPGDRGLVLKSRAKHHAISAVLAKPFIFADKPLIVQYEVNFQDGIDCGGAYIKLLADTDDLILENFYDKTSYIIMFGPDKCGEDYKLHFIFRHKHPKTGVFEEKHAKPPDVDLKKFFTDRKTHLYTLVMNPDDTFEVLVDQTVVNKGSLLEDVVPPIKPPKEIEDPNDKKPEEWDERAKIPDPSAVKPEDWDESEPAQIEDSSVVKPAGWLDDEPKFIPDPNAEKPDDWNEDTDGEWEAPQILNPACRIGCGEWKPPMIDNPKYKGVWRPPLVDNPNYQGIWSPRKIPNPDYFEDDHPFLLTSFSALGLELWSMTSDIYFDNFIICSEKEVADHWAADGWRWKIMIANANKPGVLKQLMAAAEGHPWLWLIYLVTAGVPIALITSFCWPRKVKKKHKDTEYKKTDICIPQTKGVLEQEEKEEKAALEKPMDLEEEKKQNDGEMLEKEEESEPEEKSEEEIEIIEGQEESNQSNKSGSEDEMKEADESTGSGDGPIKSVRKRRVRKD
# UniProt Q86XR8: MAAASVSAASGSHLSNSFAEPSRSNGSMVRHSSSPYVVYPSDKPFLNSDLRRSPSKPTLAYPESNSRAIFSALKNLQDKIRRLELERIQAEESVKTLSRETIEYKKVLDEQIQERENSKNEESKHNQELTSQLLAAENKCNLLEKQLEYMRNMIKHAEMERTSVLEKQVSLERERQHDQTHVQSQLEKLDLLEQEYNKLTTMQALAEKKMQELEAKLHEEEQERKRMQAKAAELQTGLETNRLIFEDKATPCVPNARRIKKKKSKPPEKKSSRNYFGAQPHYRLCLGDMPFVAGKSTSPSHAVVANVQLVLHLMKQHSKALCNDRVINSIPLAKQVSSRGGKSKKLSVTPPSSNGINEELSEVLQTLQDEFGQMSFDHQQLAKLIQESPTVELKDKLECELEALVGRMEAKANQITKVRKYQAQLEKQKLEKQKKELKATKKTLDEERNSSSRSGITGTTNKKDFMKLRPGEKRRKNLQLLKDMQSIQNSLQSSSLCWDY
# UniProt Q8WYQ3: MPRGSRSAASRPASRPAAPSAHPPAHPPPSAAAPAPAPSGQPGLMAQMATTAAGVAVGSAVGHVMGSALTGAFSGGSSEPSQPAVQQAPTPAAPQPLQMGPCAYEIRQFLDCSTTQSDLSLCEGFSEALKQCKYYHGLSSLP
# UniProt Q96HQ2: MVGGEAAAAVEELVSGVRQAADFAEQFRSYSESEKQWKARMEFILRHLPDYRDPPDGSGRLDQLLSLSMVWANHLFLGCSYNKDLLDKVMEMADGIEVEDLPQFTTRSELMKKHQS
# UniProt P24863: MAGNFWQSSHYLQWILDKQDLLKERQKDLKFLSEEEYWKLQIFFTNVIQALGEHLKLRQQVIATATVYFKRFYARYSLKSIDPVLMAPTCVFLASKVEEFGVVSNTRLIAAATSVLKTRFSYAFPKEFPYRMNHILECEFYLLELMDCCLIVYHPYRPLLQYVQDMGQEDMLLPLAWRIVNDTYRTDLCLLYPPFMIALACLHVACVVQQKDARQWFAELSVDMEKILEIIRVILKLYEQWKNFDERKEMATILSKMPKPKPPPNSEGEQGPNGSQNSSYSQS
# UniProt Q96S66: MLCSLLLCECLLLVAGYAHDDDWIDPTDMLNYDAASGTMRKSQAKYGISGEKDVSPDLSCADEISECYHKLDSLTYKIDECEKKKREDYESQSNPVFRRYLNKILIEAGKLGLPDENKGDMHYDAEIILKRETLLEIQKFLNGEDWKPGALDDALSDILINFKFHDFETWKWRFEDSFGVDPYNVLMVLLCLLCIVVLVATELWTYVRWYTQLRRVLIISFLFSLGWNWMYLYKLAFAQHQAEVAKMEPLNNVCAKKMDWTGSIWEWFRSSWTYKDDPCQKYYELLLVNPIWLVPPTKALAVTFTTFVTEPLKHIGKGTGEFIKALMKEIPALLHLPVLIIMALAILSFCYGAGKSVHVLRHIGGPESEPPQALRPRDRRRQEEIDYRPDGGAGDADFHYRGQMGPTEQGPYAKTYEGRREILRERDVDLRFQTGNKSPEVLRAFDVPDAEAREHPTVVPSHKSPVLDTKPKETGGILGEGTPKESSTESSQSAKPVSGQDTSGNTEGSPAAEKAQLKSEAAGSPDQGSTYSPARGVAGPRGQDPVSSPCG
# UniProt Q9NY35: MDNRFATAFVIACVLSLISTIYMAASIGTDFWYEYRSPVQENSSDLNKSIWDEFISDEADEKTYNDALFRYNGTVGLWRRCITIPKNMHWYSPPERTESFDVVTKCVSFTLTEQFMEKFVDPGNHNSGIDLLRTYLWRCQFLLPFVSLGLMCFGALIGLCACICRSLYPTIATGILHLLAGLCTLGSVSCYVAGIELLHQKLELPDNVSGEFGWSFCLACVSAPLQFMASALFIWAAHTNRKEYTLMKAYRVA
# The other results are listed elsewhere or left out.
# Compound: COc1ccc(Cn2ccc3ccc(C(=O)NO)cc32)cc1
# Test: dose-dependent thermal stabilisation call (2D-TPP, DLPTP, 10% FDR) (binary (1 = stabilised)); higher = stabilised by the compound
# Details: system: HL-60 intact cells; concentration range 0.04-10 µM
row,Target,dose-dependent thermal stabilisation call
1,COASY (UniProt Q13057),inactive: 0
2,CCDC59 (UniProt Q9P031),inactive: 0
3,CEP350 (UniProt Q5VT06),inactive: 0
4,CNP (UniProt P09543),inactive: 0
5,COBRA1 (UniProt Q8WX92),inactive: 0
6,CCDC150 (UniProt Q8NCX0),inactive: 0
7,CKS1B (UniProt P61024),inactive: 0
8,CNBP (UniProt P62633),inactive: 0
9,CGGBP1 (UniProt Q9UFW8),inactive: 0
10,CCDC56 (UniProt Q9Y2R0),inactive: 0
11,CCDC91 (UniProt Q7Z6B0),inactive: 0
12,CKAP2 (UniProt Q8WWK9),inactive: 0
13,CD302 (UniProt Q8IX05),inactive: 0
14,CCNT1 (UniProt O60563),inactive: 0
15,CCDC6 (UniProt Q16204),inactive: 0
16,CHAF1A (UniProt Q13111),inactive: 0
17,CD81 (UniProt P60033),inactive: 0
18,CEBPZ (UniProt Q03701),inactive: 0
19,CLGN (UniProt O14967),inactive: 0

# Three entries from above, with bars between the fields.
row | Target | dose-dependent thermal stabilisation call
10 | CCDC56 (UniProt Q9Y2R0) | inactive: 0
11 | CCDC91 (UniProt Q7Z6B0) | inactive: 0
12 | CKAP2 (UniProt Q8WWK9) | inactive: 0

# The list continues.

row,Target,dose-dependent thermal stabilisation call
1,CEP57 (UniProt Q86XR8),inactive: 0
2,CHCHD10 (UniProt Q8WYQ3),inactive: 0
3,CD44 (UniProt P16070),inactive: 0
4,CCDC21 (UniProt Q6P2H3),inactive: 0
5,CHKA (UniProt P35790),inactive: 0
6,CDKN2AIPNL (UniProt Q96HQ2),inactive: 0
7,CCNC (UniProt P24863),inactive: 0
8,CLCC1 (UniProt Q96S66),inactive: 0
9,CDC25C (UniProt P30307),inactive: 0
10,CLDND1 (UniProt Q9NY35),inactive: 0
11,COIL (UniProt P38432),inactive: 0
12,CNN2 (UniProt Q99439),inactive: 0
13,CHP (UniProt Q99653),inactive: 0
14,CHD6 (UniProt Q8TD26),inactive: 0
15,CIRH1A (UniProt Q969X6),inactive: 0
16,CHMP2B (UniProt Q9UQN3),inactive: 0
17,CNPY3 (UniProt Q9BT09),inactive: 0
18,CD2AP (UniProt Q9Y5K6),inactive: 0
